The list shows a part of the results.
Columns and labels:
Experiment in all cases: log2 fold change, soluble protein after heating vs DMSO (PISA); higher = thermal stabilisation; K562 lysate, 10 uM; active = over 0.2 and 3.5 SD of the protein, either way, in both replicates (recomputed)
alvocidib = compound: CN1CC[C@H](c2c(O)cc(O)c3c(=O)cc(-c4ccccc4Cl)oc23)[C@H](O)C1 [alvocidib]
How it was run: (§1)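 A 30 min treatment with 10 μM compound was applied to crude K562 extract at 1 mg/mL protein in PBS pH 7.4 with 1 mM MgCl2. Heating for 3 min spanned 48°C-58°C, after which aliquots were pooled, adjusted to 0.5% NP-40 at 4°C and spun at 21,000xg for 90 min. TMTpro 16plex LC-MS/MS of the supernatant, with channel sums equalised, gave values recorded as log-two fold change in thermal stability against solvent controls, from duplicates.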

Protein sequences, listed by entry. Tags and fused reporters are not part of them. Lines headed by an entry give the natural chain unless they say otherwise; changes in a name come on top.
UniProt Q9UII2: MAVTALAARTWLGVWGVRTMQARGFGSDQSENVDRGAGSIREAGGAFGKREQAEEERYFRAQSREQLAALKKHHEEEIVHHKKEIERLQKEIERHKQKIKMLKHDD
UniProt P15313, whole entry, looked up: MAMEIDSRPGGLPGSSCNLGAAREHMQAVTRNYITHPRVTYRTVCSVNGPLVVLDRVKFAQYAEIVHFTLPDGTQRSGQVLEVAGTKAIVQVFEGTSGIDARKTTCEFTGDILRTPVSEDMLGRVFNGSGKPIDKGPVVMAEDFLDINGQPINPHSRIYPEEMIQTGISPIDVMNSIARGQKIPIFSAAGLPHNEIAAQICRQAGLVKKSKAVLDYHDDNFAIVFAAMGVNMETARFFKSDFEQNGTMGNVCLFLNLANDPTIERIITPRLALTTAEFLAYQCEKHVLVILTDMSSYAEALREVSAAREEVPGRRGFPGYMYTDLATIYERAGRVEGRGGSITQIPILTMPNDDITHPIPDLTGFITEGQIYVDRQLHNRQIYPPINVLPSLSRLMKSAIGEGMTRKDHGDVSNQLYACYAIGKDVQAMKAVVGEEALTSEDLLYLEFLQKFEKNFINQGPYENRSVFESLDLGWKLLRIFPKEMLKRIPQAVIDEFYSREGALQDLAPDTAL
UniProt P98194: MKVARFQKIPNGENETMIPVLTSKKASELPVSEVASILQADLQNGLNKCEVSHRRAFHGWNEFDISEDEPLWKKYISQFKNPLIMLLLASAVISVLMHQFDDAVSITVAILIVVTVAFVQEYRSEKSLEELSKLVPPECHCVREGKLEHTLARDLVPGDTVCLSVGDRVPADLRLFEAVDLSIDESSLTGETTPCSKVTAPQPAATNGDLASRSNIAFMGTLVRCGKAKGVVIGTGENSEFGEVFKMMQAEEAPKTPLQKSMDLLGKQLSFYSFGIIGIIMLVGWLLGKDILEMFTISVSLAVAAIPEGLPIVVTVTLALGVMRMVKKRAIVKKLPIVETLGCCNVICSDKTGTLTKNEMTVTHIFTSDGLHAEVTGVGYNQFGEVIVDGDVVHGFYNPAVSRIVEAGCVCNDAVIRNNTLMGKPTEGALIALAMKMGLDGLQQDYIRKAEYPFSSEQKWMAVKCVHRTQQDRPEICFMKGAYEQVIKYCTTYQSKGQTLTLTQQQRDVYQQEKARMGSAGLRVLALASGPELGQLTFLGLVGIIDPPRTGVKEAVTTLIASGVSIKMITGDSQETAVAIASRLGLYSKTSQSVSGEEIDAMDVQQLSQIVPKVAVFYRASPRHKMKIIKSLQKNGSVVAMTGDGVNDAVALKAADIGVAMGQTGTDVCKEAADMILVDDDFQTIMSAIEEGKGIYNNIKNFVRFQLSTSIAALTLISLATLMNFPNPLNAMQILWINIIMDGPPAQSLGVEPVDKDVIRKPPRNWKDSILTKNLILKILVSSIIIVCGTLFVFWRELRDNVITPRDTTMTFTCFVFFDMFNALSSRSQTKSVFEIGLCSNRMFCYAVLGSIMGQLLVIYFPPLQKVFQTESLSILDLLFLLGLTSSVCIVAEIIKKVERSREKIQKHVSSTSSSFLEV
UniProt Q9NWX5: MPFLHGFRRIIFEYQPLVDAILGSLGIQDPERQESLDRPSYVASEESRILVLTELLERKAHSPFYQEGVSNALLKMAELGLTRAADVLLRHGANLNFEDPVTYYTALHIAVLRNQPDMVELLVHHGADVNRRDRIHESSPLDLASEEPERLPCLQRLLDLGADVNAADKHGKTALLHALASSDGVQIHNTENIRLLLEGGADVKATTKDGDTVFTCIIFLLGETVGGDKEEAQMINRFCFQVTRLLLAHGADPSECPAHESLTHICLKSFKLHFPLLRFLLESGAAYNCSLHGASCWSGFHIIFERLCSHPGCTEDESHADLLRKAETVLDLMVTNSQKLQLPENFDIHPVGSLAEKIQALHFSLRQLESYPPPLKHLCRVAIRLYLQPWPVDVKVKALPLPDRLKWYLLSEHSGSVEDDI
UniProt P38606, whole entry, looked up: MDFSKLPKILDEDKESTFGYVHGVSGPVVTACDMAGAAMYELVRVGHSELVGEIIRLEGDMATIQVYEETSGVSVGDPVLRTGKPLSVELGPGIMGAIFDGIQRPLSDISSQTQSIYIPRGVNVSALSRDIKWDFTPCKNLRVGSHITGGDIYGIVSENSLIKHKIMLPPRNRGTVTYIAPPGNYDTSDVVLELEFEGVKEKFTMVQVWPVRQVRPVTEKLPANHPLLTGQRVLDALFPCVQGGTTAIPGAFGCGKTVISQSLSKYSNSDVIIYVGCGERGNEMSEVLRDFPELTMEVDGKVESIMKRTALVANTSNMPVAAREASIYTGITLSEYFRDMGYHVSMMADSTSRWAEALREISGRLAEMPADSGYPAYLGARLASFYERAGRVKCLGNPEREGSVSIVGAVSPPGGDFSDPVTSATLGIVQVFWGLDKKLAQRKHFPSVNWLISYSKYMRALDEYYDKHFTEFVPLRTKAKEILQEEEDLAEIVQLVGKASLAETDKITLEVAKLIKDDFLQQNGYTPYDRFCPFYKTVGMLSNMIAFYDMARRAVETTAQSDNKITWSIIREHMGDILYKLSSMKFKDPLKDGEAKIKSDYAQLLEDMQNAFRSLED
UniProt P56381: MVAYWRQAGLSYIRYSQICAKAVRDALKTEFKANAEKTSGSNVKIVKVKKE
UniProt Q00973: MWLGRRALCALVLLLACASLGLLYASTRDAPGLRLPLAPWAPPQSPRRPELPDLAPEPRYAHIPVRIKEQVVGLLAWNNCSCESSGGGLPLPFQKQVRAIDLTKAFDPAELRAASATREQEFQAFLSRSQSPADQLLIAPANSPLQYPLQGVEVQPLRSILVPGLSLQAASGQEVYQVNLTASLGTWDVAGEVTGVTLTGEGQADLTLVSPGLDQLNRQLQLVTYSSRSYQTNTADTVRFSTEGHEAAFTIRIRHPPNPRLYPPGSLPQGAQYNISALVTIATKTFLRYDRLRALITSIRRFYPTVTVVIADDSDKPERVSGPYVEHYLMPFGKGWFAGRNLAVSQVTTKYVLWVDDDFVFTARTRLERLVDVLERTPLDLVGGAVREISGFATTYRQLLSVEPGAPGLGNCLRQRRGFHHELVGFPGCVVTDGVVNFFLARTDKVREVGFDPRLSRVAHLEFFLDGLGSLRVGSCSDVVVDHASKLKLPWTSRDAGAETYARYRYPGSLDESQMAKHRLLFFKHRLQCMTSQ
UniProt Q06055: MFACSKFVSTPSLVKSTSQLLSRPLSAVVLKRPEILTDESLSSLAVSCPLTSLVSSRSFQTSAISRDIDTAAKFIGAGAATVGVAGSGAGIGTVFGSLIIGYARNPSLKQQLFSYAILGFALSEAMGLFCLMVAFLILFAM
UniProt O43861: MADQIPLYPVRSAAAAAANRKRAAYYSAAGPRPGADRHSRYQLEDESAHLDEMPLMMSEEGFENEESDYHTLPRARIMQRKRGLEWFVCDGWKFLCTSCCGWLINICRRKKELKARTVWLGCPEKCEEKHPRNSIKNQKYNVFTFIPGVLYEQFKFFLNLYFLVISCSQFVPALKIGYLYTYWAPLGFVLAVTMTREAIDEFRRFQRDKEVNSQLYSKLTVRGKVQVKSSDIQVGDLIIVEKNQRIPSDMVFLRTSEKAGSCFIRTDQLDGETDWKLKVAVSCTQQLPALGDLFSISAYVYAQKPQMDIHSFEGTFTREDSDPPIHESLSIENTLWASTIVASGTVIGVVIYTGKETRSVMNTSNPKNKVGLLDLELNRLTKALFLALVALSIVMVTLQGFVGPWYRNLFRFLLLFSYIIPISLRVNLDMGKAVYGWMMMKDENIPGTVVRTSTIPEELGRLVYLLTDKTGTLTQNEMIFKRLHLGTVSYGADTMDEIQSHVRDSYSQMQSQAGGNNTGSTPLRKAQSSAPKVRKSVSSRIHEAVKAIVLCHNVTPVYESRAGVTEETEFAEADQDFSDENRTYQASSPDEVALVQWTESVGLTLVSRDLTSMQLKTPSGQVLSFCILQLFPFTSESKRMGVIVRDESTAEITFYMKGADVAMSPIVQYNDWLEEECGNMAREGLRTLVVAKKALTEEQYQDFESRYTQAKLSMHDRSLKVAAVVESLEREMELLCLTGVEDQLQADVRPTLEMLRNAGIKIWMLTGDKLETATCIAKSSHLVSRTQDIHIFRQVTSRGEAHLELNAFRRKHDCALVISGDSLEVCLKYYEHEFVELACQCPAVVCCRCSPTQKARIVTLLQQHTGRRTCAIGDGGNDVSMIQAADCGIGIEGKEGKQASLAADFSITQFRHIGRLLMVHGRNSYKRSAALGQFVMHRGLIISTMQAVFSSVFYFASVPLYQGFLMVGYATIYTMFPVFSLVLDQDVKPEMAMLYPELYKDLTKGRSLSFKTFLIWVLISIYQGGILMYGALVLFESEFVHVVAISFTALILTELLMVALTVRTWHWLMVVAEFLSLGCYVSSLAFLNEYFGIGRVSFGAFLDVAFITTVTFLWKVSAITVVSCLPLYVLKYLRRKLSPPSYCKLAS
UniProt Q9Y6H3: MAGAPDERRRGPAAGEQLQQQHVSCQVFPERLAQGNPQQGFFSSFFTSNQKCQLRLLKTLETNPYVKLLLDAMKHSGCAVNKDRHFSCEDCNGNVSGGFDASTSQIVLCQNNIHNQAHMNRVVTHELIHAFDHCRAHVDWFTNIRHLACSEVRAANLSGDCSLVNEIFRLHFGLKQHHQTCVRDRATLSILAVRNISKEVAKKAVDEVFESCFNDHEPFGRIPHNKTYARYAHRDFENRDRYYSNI
UniProt P36543, whole entry, looked up: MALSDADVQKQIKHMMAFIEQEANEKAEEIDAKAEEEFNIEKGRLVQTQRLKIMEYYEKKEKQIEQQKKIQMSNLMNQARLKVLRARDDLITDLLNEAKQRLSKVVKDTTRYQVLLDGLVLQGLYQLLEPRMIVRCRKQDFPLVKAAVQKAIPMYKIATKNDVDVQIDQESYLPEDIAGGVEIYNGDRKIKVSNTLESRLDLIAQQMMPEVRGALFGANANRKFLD
UniProt Q9NVP2, whole entry, looked up: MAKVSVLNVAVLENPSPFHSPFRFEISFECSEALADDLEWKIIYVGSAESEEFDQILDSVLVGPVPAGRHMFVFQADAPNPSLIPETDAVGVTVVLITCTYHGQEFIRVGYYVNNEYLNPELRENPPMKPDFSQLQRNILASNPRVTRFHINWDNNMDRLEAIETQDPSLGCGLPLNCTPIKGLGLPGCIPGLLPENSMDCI
UniProt Q16864, whole entry, looked up: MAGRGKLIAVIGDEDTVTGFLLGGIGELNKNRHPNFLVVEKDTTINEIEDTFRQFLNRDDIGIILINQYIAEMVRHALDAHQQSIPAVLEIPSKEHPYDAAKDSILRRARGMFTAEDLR
UniProt P18859: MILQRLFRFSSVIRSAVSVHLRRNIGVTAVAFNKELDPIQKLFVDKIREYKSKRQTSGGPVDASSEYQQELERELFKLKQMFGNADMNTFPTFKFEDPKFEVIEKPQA
UniProt Q9NQ11: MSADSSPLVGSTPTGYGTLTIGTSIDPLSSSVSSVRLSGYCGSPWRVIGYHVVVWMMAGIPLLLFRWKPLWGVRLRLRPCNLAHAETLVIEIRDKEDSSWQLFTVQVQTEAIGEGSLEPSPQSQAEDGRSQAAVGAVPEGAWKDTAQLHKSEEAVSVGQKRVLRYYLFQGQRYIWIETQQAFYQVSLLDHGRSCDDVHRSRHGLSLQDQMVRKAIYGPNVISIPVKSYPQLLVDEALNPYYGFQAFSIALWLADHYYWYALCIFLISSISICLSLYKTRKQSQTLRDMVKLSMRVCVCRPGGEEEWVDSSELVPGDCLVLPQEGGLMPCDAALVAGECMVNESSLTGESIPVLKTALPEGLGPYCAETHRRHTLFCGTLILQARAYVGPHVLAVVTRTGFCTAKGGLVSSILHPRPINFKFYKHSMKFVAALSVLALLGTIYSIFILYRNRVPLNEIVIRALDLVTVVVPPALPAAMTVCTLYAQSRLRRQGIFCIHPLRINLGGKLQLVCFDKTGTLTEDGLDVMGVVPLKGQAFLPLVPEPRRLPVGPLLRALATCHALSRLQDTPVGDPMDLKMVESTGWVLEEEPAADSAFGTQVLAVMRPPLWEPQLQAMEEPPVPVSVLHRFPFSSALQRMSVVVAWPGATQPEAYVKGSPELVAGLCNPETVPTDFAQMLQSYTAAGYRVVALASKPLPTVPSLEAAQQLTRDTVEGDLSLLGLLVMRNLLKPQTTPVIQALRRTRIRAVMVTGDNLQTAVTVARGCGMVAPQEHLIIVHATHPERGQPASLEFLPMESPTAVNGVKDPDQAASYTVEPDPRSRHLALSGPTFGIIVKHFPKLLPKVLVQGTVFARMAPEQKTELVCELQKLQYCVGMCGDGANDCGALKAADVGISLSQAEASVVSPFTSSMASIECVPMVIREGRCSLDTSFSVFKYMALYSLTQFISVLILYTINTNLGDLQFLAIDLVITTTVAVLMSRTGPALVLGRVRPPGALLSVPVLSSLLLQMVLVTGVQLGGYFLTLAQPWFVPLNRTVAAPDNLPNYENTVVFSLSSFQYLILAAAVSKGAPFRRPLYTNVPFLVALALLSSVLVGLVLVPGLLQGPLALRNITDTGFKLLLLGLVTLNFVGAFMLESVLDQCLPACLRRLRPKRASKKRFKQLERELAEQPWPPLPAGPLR

Tubastatin A = compound: CN1CCc2c(c3ccccc3n2Cc2ccc(C(=O)NO)cc2)C1 [Tubastatin A]
How it was run: as §1

[1] = compound: CNC(=O)C1=CC=CC=C1NC2=NC(=NC=C2Cl)NC3=C(C=C(C=C3)N4CCOCC4)OC
How it was run: as §1

defactinib = compound: CNC(=O)c1ccc(Nc2ncc(C(F)(F)F)c(NCc3nccnc3N(C)S(C)(=O)=O)n2)cc1 [defactinib]
How it was run: as §1

[2] = compound: CNc1nc(-c2ccc3c(N)n[nH]c3c2)cc(N2C[C@@H](C(=O)NC3CCCCC3)CC[C@H]2C)n1
How it was run: as §1

encorafenib = compound: COC(=O)N[C@@H](C)CNc1nccc(-c2cn(C(C)C)nc2-c2cc(Cl)cc(NS(C)(=O)=O)c2F)n1 [encorafenib]
How it was run: as §1

[3] = compound: COC(=O)[C@H](CCSC)NC(=O)C1=C(C=C(C=C1)NC[C@H](CS)N)C2=CC=CC=C2
How it was run: as §1

alisertib = compound: COc1cc(Nc2ncc3c(n2)-c2ccc(Cl)cc2C(c2c(F)cccc2OC)=NC3)ccc1C(=O)O [alisertib]
How it was run: as §1

[4] = compound: COc1cc2nc(-c3cc(F)ccc3O)nc(N[C@@H]3CNC[C@H]3C(C)(C)O)c2cc1OC
How it was run: as §1

gefitinib = compound: COc1cc2ncnc(Nc3ccc(F)c(Cl)c3)c2cc1OCCCN1CCOCC1 [gefitinib]
How it was run: as §1

Measured: log2 fold change

ATP5IF1 (UniProt Q9UII2)
inactive: alvocidib 0.004 | Tubastatin A 0.031 | [1] -0.034 | defactinib -0.022 | [2] 0.042 | encorafenib -0.003 | [3] 0.002 | alisertib -0.012 | [4] 0.015 | gefitinib -0.022

ATXN2 (UniProt Q99700)
inactive: alvocidib 0.046 | Tubastatin A -0.047 | [1] 0.016 | defactinib -0.019 | [2] 0.001 | encorafenib 0.018 | [3] -0.003 | alisertib -0.032 | [4] 0.011 | gefitinib 0.006

ATP5MG (UniProt O75964)
inactive: alvocidib -0.037 | Tubastatin A 0.021 | [1] 0.012 | defactinib -0.005 | [2] 0.065 | encorafenib -0.032 | [3] 0.073 | alisertib 0.021 | [4] 0.002 | gefitinib -0.02

ATP6V1B1 (UniProt P15313)
inactive: alvocidib -0.118 | Tubastatin A 0.095 | [1] 0.018 | defactinib -0.005 | [2] 0.031 | encorafenib -0.032 | [3] 0.017 | alisertib 0.023 | [4] 0.009 | gefitinib -0.033

ATP2C1 isoform 7 (UniProt P98194)
inactive: alvocidib 0.028 | Tubastatin A -0.04 | [1] -0.052 | defactinib -0.254 | [2] -0.087 | encorafenib 0.043 | [3] -0.014 | alisertib 0.078 | [4] 0.019 | gefitinib -0.03

ASDURF (UniProt L0R819)
inactive: alvocidib 0.071 | Tubastatin A 0.001 | [1] -0.073 | defactinib 0.04 | [2] -0.009 | encorafenib -0.019 | [3] 0.06 | alisertib 0.013 | [4] 0.003 | gefitinib 0.006

ASH2L (UniProt Q9UBL3)
inactive: alvocidib -0.004 | Tubastatin A -0.06 | [1] 0.03 | defactinib 0.006 | [2] 0.016 | encorafenib -0.026 | [3] 0.027 | alisertib -0.001 | [4] -0.042 | gefitinib -0.017

ASB6 (UniProt Q9NWX5)
inactive: alvocidib 0.097 | Tubastatin A 0.014 | [1] -0.006 | defactinib 0.019 | [2] 0.099 | encorafenib -0.1 | [3] 0.174 | alisertib -0.001 | [4] 0.073 | gefitinib -0.046

ATXN2L isoform 3 (UniProt Q8WWM7)
inactive: alvocidib -0.006 | Tubastatin A 0.008 | [1] -0.016 | defactinib -0.014 | [2] -0.012 | encorafenib -0.001 | [3] -0.056 | alisertib -0.013 | [4] 0.01 | gefitinib 0.002

5 consecutive entries from above:
ATP6V1B1 (UniProt P15313)
inactive: alvocidib -0.118 | Tubastatin A 0.095 | [1] 0.018 | defactinib -0.005 | [2] 0.031 | encorafenib -0.032 | [3] 0.017 | alisertib 0.023 | [4] 0.009 | gefitinib -0.033

ATP2C1 isoform 7 (UniProt P98194)
inactive: alvocidib 0.028 | Tubastatin A -0.04 | [1] -0.052 | defactinib -0.254 | [2] -0.087 | encorafenib 0.043 | [3] -0.014 | alisertib 0.078 | [4] 0.019 | gefitinib -0.03

ASDURF (UniProt L0R819)
inactive: alvocidib 0.071 | Tubastatin A 0.001 | [1] -0.073 | defactinib 0.04 | [2] -0.009 | encorafenib -0.019 | [3] 0.06 | alisertib 0.013 | [4] 0.003 | gefitinib 0.006

ASH2L (UniProt Q9UBL3)
inactive: alvocidib -0.004 | Tubastatin A -0.06 | [1] 0.03 | defactinib 0.006 | [2] 0.016 | encorafenib -0.026 | [3] 0.027 | alisertib -0.001 | [4] -0.042 | gefitinib -0.017

ASB6 (UniProt Q9NWX5)
inactive: alvocidib 0.097 | Tubastatin A 0.014 | [1] -0.006 | defactinib 0.019 | [2] 0.099 | encorafenib -0.1 | [3] 0.174 | alisertib -0.001 | [4] 0.073 | gefitinib -0.046

Later entries

AXIN1 (UniProt O15169)
inactive: alvocidib -0.095 | Tubastatin A -0.038 | [1] 0.056 | defactinib -0.148 | [2] -0.337 | encorafenib 0.015 | [3] 0.053 | alisertib 0.03 | [4] -0.056 | gefitinib 0

ATP2B1 isoform 1 (UniProt P20020)
inactive: alvocidib -0.011 | Tubastatin A 0.036 | [1] -0.004 | defactinib -0.055 | [2] 0.022 | encorafenib 0.027 | [3] 0.03 | alisertib -0.005 | [4] 0.018 | gefitinib 0.03

ATP6V1A (UniProt P38606)
inactive: alvocidib -0.005 | Tubastatin A 0.077 | [1] 0.003 | defactinib -0.006 | [2] -0.042 | encorafenib -0.036 | [3] 0.024 | alisertib 0.019 | [4] 0.001 | gefitinib -0.018

ATP5F1E (UniProt P56381)
inactive: alvocidib -0.019 | Tubastatin A 0.042 | [1] -0.005 | defactinib 0.005 | [2] 0.019 | encorafenib 0.022 | [3] -0.127 | alisertib -0.069 | [4] 0.004 | gefitinib 0.005

B4GALNT1 (UniProt Q00973)
inactive: alvocidib -0.137 | Tubastatin A 0.066 | [1] -0.017 | defactinib 0.029 | [2] 0.083 | encorafenib 0.105 | [3] -0.019 | alisertib 0.01 | [4] 0.1 | gefitinib 0.041

ATP6V1C1 (UniProt P21283)
inactive: alvocidib 0.036 | Tubastatin A 0.02 | [1] -0.012 | defactinib 0.001 | [2] -0.027 | encorafenib -0.016 | [3] -0.01 | alisertib -0.019 | [4] -0.007 | gefitinib -0.013

B3GLCT (UniProt Q6Y288)
inactive: alvocidib -0.042 | Tubastatin A 0.119 | [1] -0.007 | defactinib 0.033 | [2] 0.026 | encorafenib 0 | [3] 0.074 | alisertib -0.007 | [4] 0.016 | gefitinib 0.012

ATPAF1 (UniProt Q5TC12)
inactive: alvocidib 0.062 | Tubastatin A 0 | [1] -0.009 | defactinib -0.008 | [2] -0.02 | encorafenib 0.029 | [3] -0.053 | alisertib -0.056 | [4] 0.013 | gefitinib 0.007

ATP5MC2 isoform 2 (UniProt Q06055)
inactive: alvocidib -0.032 | Tubastatin A 0.011 | [1] -0.024 | defactinib -0.029 | [2] 0.081 | encorafenib 0.014 | [3] -0.073 | alisertib -0.026 | [4] -0.011 | gefitinib -0.036

ATP9B (UniProt O43861)
inactive: alvocidib -0.076 | Tubastatin A 0.048 | [1] 0.044 | defactinib -0.117 | [2] -0.018 | encorafenib 0.068 | [3] 0.012 | alisertib -0.081 | [4] 0.16 | gefitinib -0.015

ATP23 (UniProt Q9Y6H3)
inactive: alvocidib 0.117 | Tubastatin A -0.116 | [1] 0.042 | defactinib 0.029 | [2] 0.064 | encorafenib 0.01 | [3] 0.048 | alisertib -0.076 | [4] -0.037 | gefitinib 0.001

ATP6V0A1 isoform 3 (UniProt Q93050)
inactive: alvocidib -0.03 | Tubastatin A 0.086 | [1] -0.005 | defactinib 0.004 | [2] 0.004 | encorafenib 0.003 | [3] -0.011 | alisertib -0.015 | [4] 0.051 | gefitinib 0.014

ATRIP (UniProt Q8WXE1)
inactive: alvocidib 0.012 | Tubastatin A -0.105 | [1] -0.074 | defactinib -0.114 | [2] -0.141 | encorafenib 0.068 | [3] -0.061 | alisertib 0.016 | [4] 0.03 | gefitinib 0.026

ATP6V1E1 (UniProt P36543)
inactive: alvocidib -0.053 | Tubastatin A 0.03 | [1] -0.034 | defactinib 0.116 | [2] 0.011 | encorafenib -0.022 | [3] 0.04 | alisertib 0.02 | [4] 0.007 | gefitinib 0.048

ATP5F1A (UniProt P25705)
inactive: alvocidib 0.017 | Tubastatin A 0.06 | [1] -0.033 | defactinib -0.008 | [2] -0.005 | encorafenib 0 | [3] -0.024 | alisertib 0.003 | [4] 0.017 | gefitinib 0.003

ASF1B (UniProt Q9NVP2)
inactive: alvocidib -0.016 | Tubastatin A -0.002 | [1] 0.023 | defactinib -0.031 | [2] 0.027 | encorafenib 0.031 | [3] 0.072 | alisertib -0.1 | [4] 0.009 | gefitinib 0.152

ATP6V1F isoform 2 (UniProt Q16864)
inactive: alvocidib 0.217 | Tubastatin A 0.12 | [1] 0.034 | defactinib 0.329 | [2] -0.056 | encorafenib 0.068 | [3] -0.02 | alisertib -0.02 | [4] -0.126 | gefitinib -0.141

ATP5PF isoform 2 (UniProt P18859)
inactive: alvocidib 0.203 | Tubastatin A 0.146 | [1] 0.042 | defactinib 0.071 | [2] -0.022 | encorafenib 0.014 | [3] -0.061 | alisertib -0.005 | [4] 0.01 | gefitinib -0.173

ATP13A2 (UniProt Q9NQ11)
inactive: alvocidib 0.01 | Tubastatin A 0.097 | [1] -0.022 | defactinib 0.008 | [2] 0.045 | encorafenib 0.026 | [3] -0.005 | alisertib 0.024 | [4] 0.023 | gefitinib -0.027
